In patent US9273095B2, “Antibiotic peptide and preparation method therefor and application therefor” (priority 2011, dated 2016):
Not every detail of the peptide structures is certain; ends, links or a residue may be inferred.

Columns and labels:
[1] = RP-HPLC temperature profiling: hydrophobicity and self-association; type: physicochemical
Procedure: Peptides are analyzed on an Agilent 1200 series liquid chromatograph (Little Falls, Del.). Runs are performed on a Zorbax 300 SB-C8 column (150×4.6 mm I.D.; 5 μm particle size, 300 Å pore size) from Agilent Technologies using linear AB gradient (1% acetonitrile/min) and a flow rate of 1 ml/min, where solvent A is 0.05% aqueous TFA, pH 2 and solvent B is 0.05% TFA in acetonitrile.
We further use temperature profiling during RP-HPLC to determine the self-association ability of various analogs of PL-13 (SEQ ID NO: 1) which would occur through interaction of the non-polar faces of these amphipathic peptides α-helices. We use 50% TFE aqueous acetonitrile and hydrophobic conditions in the reversed-phase column (hydrophobic stationary phase and the hydrophobic organic solvent in the mobile phase) since the hydrophobic environment of a reversed-phase column also could induce α-helical structure. Since its introduction, the technique of RP-HPLC temperature profiling has been applied on several types of molecules, including cyclic β-sheet peptides, monomeric α-helices and α-helices that dimerize, as well as α-helices that dimerize to form coiled-coils. Although peptides are eluted from a reversed-phase column mainly by an adsorption/desorption mechanism, even a peptide strongly bound to a hydrophobic stationary phase will partition between the matrix and the mobile phase when the acetonitrile content becomes high enough during gradient elution. In summary, the mechanism is based on four assumptions: (i) at low temperature, just as an amphipathic α-helical peptide is able to dimerize in aqueous solution (through its hydrophobic, non-polar face), it will dimerize in solution during partitioning in reversed-phase chromatography; (ii) at higher temperatures, the monomer-dimer equilibrium favors the monomer as the dimer is disrupted; (iii) at sufficiently high temperatures, only monomer is present in solution; and (iv) peptide is always bound in its monomeric helical form to the hydrophobic stationary phase, i.e., the dimer can only be present in solution and disruption of the dimer is required for rebinding to the RP-HPLC matrix.
([θ]222=−3,950). Since peptide C is a monomeric random coil peptide in both aqueous and hydrophobic media, its retention behavior over the temperature range 5-80° C. represents only general temperature effects on peptide retention behavior, i.e., a linear decrease in peptide retention time with increasing temperature due to greater solute diffusivity and enhanced mass transfer between the stationary and mobile phases at higher temperatures. Thus, after normalization to the retention times of peptide C, the retention behavior of the peptides only represents peptide self-association ability. Note that the higher the PA value, the greater the self-association ability. The order of peptide self-association ability of the three pairs of peptide enantiomers is identical to the order of peptide hydrophobicity. Apart from the decrease in retention time due to the general temperature effects noted above, destruction of the α-helix will also occur with increasing temperature, resulting in reduced retention times as the peptides become increasingly random coils.
The retention time data for the peptides is shown in Table 6 which records retention times at 5° C., the maximal retention times and retention times at 80° C. during the temperature profiling. Temperatures of 5-80° C. are the lower and upper temperature limits of temperature profiling in RP-HPLC, representing polymerization of the peptides at 5° C. and the monomerization of peptides at 80° C. due to denaturation of peptides by high temperature and dissociation of the polymers. The maximal retention times represent the threshold points at which peptides totally transform from polymeric to monomeric form. […]

[2] = Circular dichroism (CD) spectroscopy, helical structure; type: physicochemical
Procedure: The mean residue molar ellipticities of peptides are determined by circular dichroism (CD) spectroscopy, using a Jasco J-720 spectropolarimeter (Jasco, Easton, Md.), at 25° C. under benign conditions (50 mM KH2PO4/K2HPO4/100 mM KCl, pH7), as well as in the presence of an α-helix inducing solvent, 2,2,2-trifluoroethanol (TFE) (50 mM KH2PO4/K2HPO4/100 mM KCL, pH 7 buffer/50% TFE). A 10-fold dilution of a 500 μM stock solution of the peptide is loaded into a 0.02 cm fused silica cell and its mean residue molar ellipticity scanned from 190 to 250 nm. The values of mean residue molar ellipticities of the peptide at a wavelength of 222 nm are used to estimate the relative amount of α-helicity of the peptides.
To determine the secondary structure of peptides in different environments, circular dichroism (CD) spectra of the peptide analogs are measured under physiologically related pH and ionic strength (100 mM KCl, 50 mM aq. PO4, pH 7 referred to as benign conditions) and also in 50% TFE to mimic the hydrophobic environment of the membrane. CD spectra of the peptide analogs are measured under benign conditions (100 mM KCl, 50 mM KH2PO4/K2HPO4, pH 7, referred to as KP buffer) and also in 50% trifluoroethanol (TFE) to mimic the hydrophobic environment of the membrane. […] However, in the presence of 50% TFE, all three L-peptides are fully folded α-helical structures with similar molar ellipticities and helicity.
FIG. 2 illustrates graphical results of Circular dichroism (CD) spectra of peptides at pH 7.4 and 25° C., in 50 mM aq. PO4 containing 100 mM KCl, wherein KP buffer (50 mM KH2PO4, K2HPO4, 100 mM KCl, pH 7.4) mimics hydrophilic environment and KP buffer-TFE (1:1 [vol/vol]) mimics hydrophobic environment of cell membrane. The figure above represents the CD spectra of peptides in benign buffer without TFE, whilst the figure below represents CD spectra obtained in the presence of 50% TFE.

## Ac-FKKLKKLFSKLLNLK-NH2 [PL-26]
[1]; RP-HPLC temperature profiling, 5° C.
  tR(min) 5° C.: 35.66 min
[1]; RP-HPLC temperature profiling, 80° C.
  tR(min) 80° C.: 33.49 min
[1]; maximal normalized retention time difference within 5-80° C., self-association ability
  PA (min), association parameter: 0.68 min
[1]; maximal retention time during temperature profiling 5-80° C.
  tR(min) Max: 35.66 min
[1]; retention time difference to control peptide C at 5° C., relative hydrophobicity
  ΔtR(X-Peptide C)(min) 5° C.: 13.10 min
[1]; retention time difference to control peptide C at 80° C., relative hydrophobicity
  ΔtR(X-Peptide C)(min) 80° C.: 13.56 min
[1]; retention time in RP-HPLC at pH 2, 5° C.
  Hydrophobicity tR5: 35.66 min
[1]; retention time in RP-HPLC at pH 2, 80° C.
  Hydrophobicity tR80: 33.49 min
[2]; 50% TFE, relative to ellipticity (100%) of reference peptide in 50% TFE
  50% TFE % helix: 87.4%
[2]; benign buffer, relative to ellipticity (100%) of reference peptide in 50% TFE
  Benign buffer % helix: 9.6%
[2]; mean residue molar ellipticity at 222 nm, 25° C., 100 mM KCl, 50 mM PO4, pH 7.0
  Benign buffer [θ]222: −2700 deg · cm^2 · dmol^−1
[2]; mean residue molar ellipticity at 222 nm, 25° C., buffer containing 50% TFE
  50% TFE [θ]222: −24650 deg · cm^2 · dmol^−1
